# PubChem BioAssay AID504804 | Drosophila RNAi Screening Center, 2011
# Assay: 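dsRNAs that improve Kc cell survival under doxorubicin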 (primary screen)
# Cell system: Drosophila Kc cells
# Reagent: long dsRNA against Drosophila genes, 0.5 µg dsRNA per well
# Duration: 96 h (48 h knock-down, then 48 h drug)
# Challenge: doxorubicin 5 µg/ml for 48 h, added 48 h after dsRNA
# Measurement: 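Luminescent ATP counts per replicate, not normalised, reflecting viable cells after 48 h dsRNA knock-down followed by 48 h of 5 µg/ml doxorubicin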
# Scale: raw ATP luminescence: higher = more viable cells, protection from doxorubicin
# Hit rule: 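z-score of 2 or more over plate mean in both duplicates, retained only when retests and separate dsRNAs confirm the protection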
# In all, the deposit lists about 19,000 reagents; this is a random part of those that have a named target and a result. Of all reagents, 47 (0.25%) were called active. 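Signals are raw, not normalised; exact z-scores behind calls not deposited; actives needed confirmation, so some wells reaching 2 SD are inactive.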 Reagents against one gene are numbered here. Names joined by + are all predicted targets of the reagent. Reagent sequences are not shown.
gene,reagent no.,SD above plate mean,"raw ATP luminescence, replicate 1","raw ATP luminescence, replicate 2",outcome
CtsK2,1,,82303,75283,inactive
CG31268,1,,2.46e5,2.31e5,inactive
CG9356,1,,65183,23843,inactive
Idh3b,1,at least 3 SD above plate mean,73500,94860,inactive
CG11699,1,,3.25e5,3.07e5,inactive
E5,1,,58030,63412,inactive
E5,2,,21110,16670,inactive
Dhrs4,1,,40580,31377,inactive
CG10321,1,,1.47e5,1.61e5,inactive
CG33689,1,,87313,86253,inactive
lncRNA:sphinx + ATPsynF,1,,1.76e5,2.27e5,inactive
dnc,1,,23160,28820,inactive
dnc,2,,49000,58050,inactive
dnc,3,,47330,59920,inactive
dnc,4,,38330,47600,inactive
dnc,5,,73740,61070,inactive
CG7099,1,,68950,79780,inactive
CG4053,1,,76260,79290,inactive
CG11454,1,,1.02e5,81270,inactive
Ublcp1,1,,43197,32687,inactive
CG43867,1,,2.49e5,2.35e5,inactive
CG43867,2,,44220,49440,inactive
CG43867,3,,45760,51500,inactive
CG43867,4,,40610,45090,inactive
CG14635,1,,61790,35110,inactive
Dhpr,1,,59367,74717,inactive
CG4324,1,,53883,51587,inactive
CG7275,1,,33487,22853,inactive
CG15653,1,,48810,41597,inactive
Hcs,1,,89570,61957,inactive
Hcs,2,,58907,70983,inactive
Not11,1,,53427,53200,inactive
Prestin,1,,52583,50203,inactive
CG10650,1,,90557,66743,inactive
CG42360,1,,45187,49827,inactive
CG15236,1,,48527,1.15e5,inactive
ari-2,1,,59167,35570,inactive
CG7685,1,,64530,70670,inactive
Elba3,1,,98097,72550,inactive
Sod1,1,,80677,75993,inactive
Fancd2,1,,71050,70050,inactive
Ndf,1,,99487,58787,inactive
Pitslre,1,,20500,31250,inactive
S-Lap1,1,,39213,40367,inactive
CG31797,1,,61620,72857,inactive
CG31797,2,,56563,58713,inactive
CG12984,1,,65753,76543,inactive
CG15452,1,,3.60e5,3.70e5,inactive
CG3650,1,,39203,60993,inactive
PTP-ER,1,,79813,57380,inactive
Nep3,1,,3.40e5,3.27e5,inactive
CG34328,1,,2.59e5,2.79e5,inactive
CG13102,1,,39497,79980,inactive
Zasp67,1,,62810,71817,inactive
CG4914,1,,75637,53140,inactive
CG15597,1,,71443,44757,inactive
CG3097,1,,34470,41160,inactive
CG10904,1,,38770,54743,inactive
ATPsynE,1,,58487,34770,inactive
CG31463,1,,58327,51793,inactive
Pof,1,,69000,59983,inactive
Fer1,1,,52167,64597,inactive
Fer1,2,,64017,60207,inactive
CG11269,1,,64790,51770,inactive

Continued, starting with the last 15 of the part before.
gene,reagent no.,SD above plate mean,"raw ATP luminescence, replicate 1","raw ATP luminescence, replicate 2",outcome
PTP-ER,1,,79813,57380,inactive
Nep3,1,,3.40e5,3.27e5,inactive
CG34328,1,,2.59e5,2.79e5,inactive
CG13102,1,,39497,79980,inactive
Zasp67,1,,62810,71817,inactive
CG4914,1,,75637,53140,inactive
CG15597,1,,71443,44757,inactive
CG3097,1,,34470,41160,inactive
CG10904,1,,38770,54743,inactive
ATPsynE,1,,58487,34770,inactive
CG31463,1,,58327,51793,inactive
Pof,1,,69000,59983,inactive
Fer1,1,,52167,64597,inactive
Fer1,2,,64017,60207,inactive
CG11269,1,,64790,51770,inactive
bdg,1,,48067,71593,inactive
Nubp2,1,,68790,54613,inactive
Andorra,1,,3.65e5,3.49e5,inactive
Osi5,1,,57560,56810,inactive
Elp6,1,,51443,24603,inactive
SmB,1,,69023,55673,inactive
CG12224,1,,46710,49760,inactive
CG34309,1,,66490,70270,inactive
Ssl,1,,62890,52443,inactive
GluRIIA,1,,21583,29977,inactive
Sox21a,1,,34017,42170,inactive
CG14043,1,,31157,38273,inactive
RfC3,1,,40043,71647,inactive
ninaC,1,,1.16e5,90597,inactive
CG34393,1,,19590,26550,inactive
CG34393,2,,24743,29137,inactive
Ccdc58,1,,27537,21300,inactive
RpL5,1,,37473,35240,inactive
Prp8,1,,73637,50743,inactive
CG31086 + CG31323,1,,58320,58560,inactive
Pino,1,,1.18e5,89670,inactive
Pino,2,,1.17e5,48850,inactive
U4-U6-60K,1,,47577,35160,inactive
CG30020,1,,1.57e5,1.64e5,inactive
CG30020,2,,48950,94333,inactive
CG8252,1,,73593,73557,inactive
CG14868,1,,1.88e5,2.14e5,inactive
twr,1,,75240,64837,inactive
CG5262,1,,28330,28643,inactive
CG3581,1,,59520,85700,inactive
CG17931 + CG42446,1,,77230,64930,inactive
CG18787 + CG18789,1,,29063,37807,inactive
Obp50d,1,,1.03e5,1.11e5,inactive
Gmer,1,,77697,53363,inactive
fs(1)h,1,,2.14e5,2.71e5,inactive
Taz,1,,2.96e5,3.25e5,inactive
colt,1,,1.20e5,76277,inactive
CG1074,1,,21290,22560,inactive
Rdh1,1,,55283,52127,inactive
upd3,1,,3.58e5,3.43e5,inactive
upd3,2,,4.01e5,3.37e5,inactive
pippin,1,,61027,80107,inactive
RpL24,1,,49883,47737,inactive
